# Results are given in words; binding and its absence hold for the method and conditions named. In cells and extracts the contact can be indirect. A result given as binding can be weak or reduced; the word gives no strength.
# Sequences of proteins named here, by UniProt entry; tags and fusion partners are left off. A change or cut given only in a name is not applied to a line headed by its entry. A line that says so, or that is headed by a name, gives the form on record, which may keep a tag or linker. Residues count along the entry.
# UniProt Q9VQ56: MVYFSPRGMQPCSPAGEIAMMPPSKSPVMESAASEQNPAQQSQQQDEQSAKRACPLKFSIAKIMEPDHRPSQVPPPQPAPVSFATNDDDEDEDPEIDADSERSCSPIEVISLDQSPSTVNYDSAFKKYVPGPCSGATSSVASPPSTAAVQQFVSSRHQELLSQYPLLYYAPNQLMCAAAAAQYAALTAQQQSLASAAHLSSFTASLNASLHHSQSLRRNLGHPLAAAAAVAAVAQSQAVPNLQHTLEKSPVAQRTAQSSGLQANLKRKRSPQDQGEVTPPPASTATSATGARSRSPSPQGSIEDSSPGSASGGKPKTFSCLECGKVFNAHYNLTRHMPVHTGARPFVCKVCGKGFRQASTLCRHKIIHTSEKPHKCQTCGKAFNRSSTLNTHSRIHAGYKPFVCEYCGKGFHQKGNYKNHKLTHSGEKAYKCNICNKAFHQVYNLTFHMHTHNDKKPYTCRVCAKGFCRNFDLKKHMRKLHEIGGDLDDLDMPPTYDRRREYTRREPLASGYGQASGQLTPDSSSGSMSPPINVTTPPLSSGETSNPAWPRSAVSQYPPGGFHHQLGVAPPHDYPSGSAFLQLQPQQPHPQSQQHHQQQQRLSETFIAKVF
# Flag-tagged Erm N-terminal 1-441aa (Drosophila (D. melanogaster)): residues 1-441 of Q9VQ56
# Flag-tagged Erm C-terminal 332-611aa (Drosophila (D. melanogaster)): residues 332-611 of Q9VQ56
# UniProt Q24090: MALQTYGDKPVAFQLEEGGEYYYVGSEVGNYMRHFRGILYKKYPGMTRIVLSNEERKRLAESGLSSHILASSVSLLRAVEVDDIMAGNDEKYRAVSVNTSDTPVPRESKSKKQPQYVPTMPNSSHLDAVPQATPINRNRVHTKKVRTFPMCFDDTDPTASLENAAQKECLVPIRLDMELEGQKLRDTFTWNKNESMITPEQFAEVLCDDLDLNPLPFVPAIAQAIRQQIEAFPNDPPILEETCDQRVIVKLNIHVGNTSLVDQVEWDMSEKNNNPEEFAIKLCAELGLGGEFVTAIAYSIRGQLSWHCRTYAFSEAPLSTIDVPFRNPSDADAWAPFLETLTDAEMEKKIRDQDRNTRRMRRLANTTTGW
# How the values were obtained:
# [1] = target: MBP-Erm-C (Maltose-Binding Protein fused to Erm 332-611aa) (Drosophila (D. melanogaster)) (UniProt Q9VQ56); assay: pull-down; 50 μg purified MBP or MBP fusion protein bound on amylose resin, incubated 3 hr at 4°C with protein extracts from transfected S2 cells; washed three times with lysis buffer; western blot with anti-Myc; only the target purified
# [2] = target: MBP-Erm-N (Maltose-Binding Protein fused to Erm 1-441aa) (Drosophila (D. melanogaster)) (UniProt Q9VQ56); assay: as above
# [3] = target: Flag-tagged Erm C-terminal 332-611aa (Drosophila (D. melanogaster)) (UniProt Q9VQ56); assay: co-IP; S2 cells co-transfected with Flag- and Myc-tagged proteins; lysis buffer 25 mM Tris pH8, 27.5 mM NaCl, 20 mM KCl, 0.5% Nonidet P40; IP with anti-Myc or anti-Flag overnight at 4°C, protein A/G beads; western blot with anti-Flag and anti-Myc
# [4] = target: Flag-tagged Erm N-terminal 1-441aa (Drosophila (D. melanogaster)) (UniProt Q9VQ56); assay: as above
substance,measurement,setting,value
Myc-tagged Snr1 (from UniProt Q24090),binding,[1],binds weakly
same,binding,[2],binds
same,binding,[3],binds
same,binding,[4],binds

# Source: publication PMC3944433
